According to the supplement of paper PMC7661543:
± gives the standard deviation of the averaged measurements. The effect of the compound repeats well; differences between the knockouts mostly do not.

System: ZR-75-1
Assay: relative cell number vs DMSO control (72 h) (% of DMSO); higher = less growth inhibition (more cells)
Procedure: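 QMAP-Seq: a pool of 5 breast cancer cell lines (ZR-75-1, SKBR3, HCC-38, MDA-MB-231, BT-20), each carrying 12 doxycycline-inducible Cas9 sgRNA perturbations (11 knockouts plus non-targeting sgNT), was treated with compounds for 72 h at four 10-fold doses (10 nM-10 uM or 1 nM-1 uM range). Barcodes were amplified and sequenced, and cell number was interpolated from 293T spike-in standard curves. The result is expressed as % of the median of DMSO wells. Two biological replicates.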

[1] = sgRNA knockout: sgATF3, 1000 nM
[2] = sgRNA knockout: sgATF3, 10000 nM
[3] = sgRNA knockout: sgATF4, 1000 nM
[4] = sgRNA knockout: sgATF4, 10000 nM
[5] = sgRNA knockout: sgATF6, 1000 nM
[6] = sgRNA knockout: sgATF6, 10000 nM
[7] = sgRNA knockout: sgATG7, 1000 nM
[8] = sgRNA knockout: sgATG7, 10000 nM
[9] = sgRNA knockout: sgERN1, 1000 nM
[10] = sgRNA knockout: sgERN1, 10000 nM
[11] = sgRNA knockout: sgHSF2, 1000 nM
[12] = sgRNA knockout: sgHSF2, 10000 nM
[13] = sgRNA knockout: sgNFE2L2, 10 nM
[14] = sgRNA knockout: sgNFE2L2, 100 nM
[15] = sgRNA knockout: sgNFE2L2, 1000 nM
[16] = sgRNA knockout: sgNFE2L2, 10000 nM
[17] = sgRNA knockout: sgSLC35F2, 10 nM
[18] = sgRNA knockout: sgSLC35F2, 100 nM
[19] = sgRNA knockout: sgSLC35F2, 1000 nM
[20] = sgRNA knockout: sgSLC35F2, 10000 nM
[21] = sgRNA knockout: sgXBP1, 1000 nM
[22] = sgRNA knockout: sgXBP1, 10000 nM

Compound | relative cell number (sgRNA knockout: sgATF3, 10 nM) | relative cell number (sgRNA knockout: sgATF3, 100 nM) | relative cell number [1] | relative cell number [2] | relative cell number (sgRNA knockout: sgATF4, 10 nM) | relative cell number (sgRNA knockout: sgATF4, 100 nM) | relative cell number [3] | relative cell number [4] | relative cell number (sgRNA knockout: sgATF6, 10 nM) | relative cell number (sgRNA knockout: sgATF6, 100 nM) | relative cell number [5] | relative cell number [6] | relative cell number (sgRNA knockout: sgATG7, 10 nM) | relative cell number (sgRNA knockout: sgATG7, 100 nM) | relative cell number [7] | relative cell number [8] | relative cell number (sgRNA knockout: sgERN1, 10 nM) | relative cell number (sgRNA knockout: sgERN1, 100 nM) | relative cell number [9] | relative cell number [10] | relative cell number (sgRNA knockout: sgHSF2, 10 nM) | relative cell number (sgRNA knockout: sgHSF2, 100 nM) | relative cell number [11] | relative cell number [12] | relative cell number [13] | relative cell number [14] | relative cell number [15] | relative cell number [16] | relative cell number [17] | relative cell number [18] | relative cell number [19] | relative cell number [20] | relative cell number (sgRNA knockout: sgXBP1, 10 nM) | relative cell number (sgRNA knockout: sgXBP1, 100 nM) | relative cell number [21] | relative cell number [22]
Cc1ccc(Nc2nccc(N(C)c3ccc4c(C)n(C)nc4c3)n2)cc1S(N)(=O)=O [Pazopanib] | 116 ± 12 | 63.1 ± 3.5 | 109 ± 5.9 | 44.2 ± 2.5 | 87.6 ± 20 | 63.4 ± 15 | 57 ± 25 | 45.04 ± 0.34 | 108 ± 38 | 89.2 ± 50 | 80.5 ± 4.8 | 29 ± 6.5 | 95.8 ± 16 | 71.8 ± 4.6 | 86.9 ± 5 | 41 ± 1.6 | 90.2 ± 1.7 | 115 ± 10 | 94.9 ± 18 | 44.9 ± 9.9 | 109 ± 3.2 | 93.6 ± 11 | 95.8 ± 4.7 | 34.7 ± 8.8 | 106 ± 31 | 91.9 ± 16 | 129 ± 50 | 41.4 ± 11 | 105 ± 73 | 81.3 ± 65 | 71 ± 1.7 | 27.5 ± 0.59 | 118 ± 13 | 95.1 ± 11 | 92.3 ± 36 | 33.7 ± 12
C=CCn1c(=O)c2cnc(Nc3ccc(N4CCN(C)CC4)cc3)nc2n1-c1cccc(C(C)(C)O)n1 [MK1775] | 105 ± 2.5 | 95.8 ± 12 | 82.1 ± 7.5 | 29.8 ± 0.74 | 101 ± 35 | 87.3 ± 13 | 91.2 ± 11 | 26.9 ± 10 | 78.8 ± 33 | 87.1 ± 24 | 71.8 ± 13 | 16.3 ± 9 | 83.4 ± 14 | 89.1 ± 11 | 62.3 ± 32 | 27.8 ± 14 | 113.5 ± 0.47 | 86.1 ± 8.3 | 87.4 ± 23 | 31.8 ± 11 | 97 ± 8.6 | 102 ± 13 | 65.6 ± 6.7 | 27.7 ± 3.1 | 109 ± 16 | 78.5 ± 24 | 83.7 ± 34 | 20.8 ± 5.6 | 70.9 ± 13 | 96.3 ± 4.5 | 42.7 ± 5.7 | 14.7 ± 0.44 | 103 ± 6.7 | 88.3 ± 11 | 88.4 ± 8.1 | 27 ± 1.9
CCn1c(=O)c2c(nc(/C=C/c3ccc(OC)c(OC)c3)n2C)n(CC)c1=O [Istradefylline] | 99.9 ± 2.1 | 122 ± 15 | 98.3 ± 22 | 139 ± 8.2 | 113 ± 39 | 104 ± 21 | 111 ± 13 | 119 ± 39 | 129 ± 60 | 132 ± 21 | 128 ± 59 | 110 ± 5.7 | 65 ± 24 | 116 ± 23 | 88.1 ± 2.2 | 108 ± 3.8 | 84.6 ± 23 | 84.7 ± 5.2 | 103 ± 30 | 123 ± 6.3 | 74.17 ± 0.24 | 92.1 ± 20 | 95.6 ± 15 | 111 ± 14 | 90.1 ± 2.8 | 117 ± 3.5 | 102 ± 28 | 107.8 ± 0.71 | 96.3 ± 39 | 108 ± 12 | 84.8 ± 42 | 69.5 ± 7.7 | 86.7 ± 14 | 96.2 ± 6.2 | 105 ± 9.5 | 103 ± 15
Nc1nc(Cl)nc2c1ncn2[C@@H]1O[C@H](CO)[C@@H](O)[C@@H]1F [Clofarabine] | 98.4 ± 37 | 67.7 ± 4 | 28.4 ± 10 | 46.7 ± 0.49 | 67.5 ± 19 | 61.4 ± 45 | 26.5 ± 3.2 | 33.4 ± 10 | 79.6 ± 14 | 75.6 ± 24 | 24.9 ± 18 | 23.5 ± 10 | 119 ± 3.6 | 59 ± 26 | 20.1 ± 3.3 | 26.9 ± 4.4 | 89.6 ± 3.7 | 54.5 ± 12 | 31.4 ± 1.9 | 34.2 ± 1.5 | 123 ± 5.8 | 57.3 ± 11 | 27.3 ± 6.1 | 27.9 ± 6.2 | 81.2 ± 20 | 65.5 ± 16 | 28 ± 2.3 | 26.9 ± 3.4 | 73.4 ± 0.85 | 65.8 ± 17 | 27.2 ± 1.3 | 32.9 ± 7.7 | 92.7 ± 6.9 | 56.6 ± 7.4 | 25.9 ± 5.5 | 26.8 ± 0.98
CC(=O)Nc1nc(C)c(-c2ccc(Cl)c(S(=O)(=O)NCCO)c2)s1 [PIK93] | 129 ± 11 | 127 ± 8.3 | 81.3 ± 20 | 63.5 ± 8.1 | 109 ± 6 | 92.6 ± 9.2 | 80.3 ± 34 | 58 ± 13 | 110 ± 2.7 | 78.9 ± 12 | 74.3 ± 13 | 53.4 ± 2.7 | 78.8 ± 18 | 90.2 ± 3.6 | 72.4 ± 9.3 | 72.5 ± 16 | 93 ± 15 | 119 ± 18 | 88.9 ± 13 | 73.14 ± 0.25 | 99.6 ± 26 | 116.2 ± 1.1 | 85.3 ± 6.4 | 60.8 ± 20 | 87.7 ± 7.1 | 124 ± 8.2 | 89.7 ± 7.3 | 76.5 ± 9.9 | 145 ± 49 | 61.8 ± 23 | 58.2 ± 6.7 | 84.9 ± 38 | 107 ± 21 | 124 ± 15 | 85.58 ± 0.47 | 74.3 ± 7.8
CCC(C)(C)C(=O)O[C@H]1C[C@@H](C)C=C2C=C[C@H](C)[C@H](CC[C@@H]3C[C@@H](O)CC(=O)O3)[C@H]21 [Simvastatin] | 96 ± 1.3 | 62.4 ± 6.1 | 85.2 ± 7.8 | 66.3 ± 7.6 | 93 ± 34 | 92.9 ± 26 | 50.2 ± 45 | 102 ± 12 | 95 ± 27 | 108 ± 6.8 | 61.5 ± 12 | 85.4 ± 24 | 121 ± 32 | 73.5 ± 10 | 136 ± 43 | 83 ± 6.4 | 106 ± 12 | 102.3 ± 0.45 | 83.3 ± 0.36 | 76.5 ± 15 | 99.5 ± 13 | 89.4 ± 4.6 | 107 ± 11 | 81.5 ± 11 | 122 ± 10 | 103 ± 29 | 97.4 ± 13 | 89.5 ± 7.8 | 84.4 ± 0.27 | 75.6 ± 1.6 | 83.1 ± 31 | 70.3 ± 16 | 89.1 ± 2.8 | 110 ± 9.8 | 104 ± 0.71 | 80.5 ± 22
COC(=O)/C=C/C(=O)OC [DimethylFumarate] | 97.2 ± 22 | 95.7 ± 15 | 93.3 ± 21 | 95.1 ± 39 | 112 ± 9.1 | 83.5 ± 6.2 | 99.1 ± 3.6 | 89.4 ± 18 | 97 ± 15 | 73.5 ± 37 | 122 ± 13 | 111 ± 4.6 | 101 ± 56 | 88.2 ± 6.7 | 107 ± 8.4 | 77.1 ± 7.3 | 79.1 ± 14 | 79.6 ± 14 | 115 ± 20 | 92 ± 3.4 | 97.6 ± 37 | 98.6 ± 1.8 | 97 ± 2.6 | 86.9 ± 13 | 109 ± 11 | 96.2 ± 5 | 115 ± 31 | 107 ± 7.1 | 64 ± 6.4 | 118 ± 59 | 122 ± 26 | 52.4 ± 47 | 86 ± 21 | 90.5 ± 15 | 105 ± 16 | 98.6 ± 3.7
